Measurements reported in PubChem BioAssay AID1671195 (Yale University, 2021)
Screen: 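Knockdowns that increase or decrease uptake of fluorescent LDL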 (primary screen). System: human Huh7 hepatoma cells. Knock-down reagent: siRNA pool against human genes, 18 nM. Duration: about 2 to 2.5 days of knockdown, then 8 h LDL uptake. Challenge: DiI-labelled LDL at 30 µg/ml for 8 h, in lipoprotein-deficient serum medium. Measured: 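Fluorescent LDL signal imaged in cells, scaled to the plate median, robust z-score for each replicate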. Reading the numbers: robust z-score: higher = more LDL uptake after knockdown. Call rule: 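a gene counts as active if at least two replicate z-scores exceed ±2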.
The deposit covers about 22,000 reagents; shown is a random part of them. Over the whole deposit, about 1,510 (6.9%) are marked active. 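Active includes knockdowns raising or lowering LDL uptake; positive z-scores mean more uptake, negative mean less.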 Reagents against one gene are numbered here. No sequences are given here.

Target gene	reagent no.	robust z-score, replicate 1	robust z-score, replicate 2	robust z-score, replicate 3	Call
RHO (GeneID 6010)	1	-1.17	-0.568	-1.94	inactive
TRARG1 (GeneID 286753)	1	-1.01	-1.03	-0.818	inactive
ZC2HC1A (GeneID 51101)	1	-1.81	-0.494	-0.464	inactive
KRTAP11-1 (GeneID 337880)	1	-1.1	-0.918	-1.16	inactive
MUC6 (GeneID 4588)	1	-1.41	-1.16	-1.24	inactive
MCM2 (GeneID 4171)	1	-0.785	-0.673	-0.252	inactive
SLC35G2 (GeneID 80723)	1	0.489	0.0684	0.117	inactive
GLTPD2 (GeneID 388323)	1	-0.678	-0.513	-0.346	inactive
ACBD5 (GeneID 91452)	1	0.949	1.24	1.17	inactive
PIK3IP1 (GeneID 113791)	1	-0.38	-0.908	-0.942	inactive
RPL5P34 (GeneID 388907)	1	2.42	2.07	3.19	active
SIDT1 (GeneID 54847)	1	-0.174	-0.259	-0.357	inactive
CCL18 (GeneID 6362)	1	-0.683	-0.407	0.0694	inactive
LINC01999 (GeneID 388406)	1	1.04	0.753	1.12	inactive
IFT52 (GeneID 51098)	1	-0.352	-1.32	0.198	inactive
BAG1 (GeneID 573)	1	-0.457	-0.536	0.284	inactive
TUBB1 (GeneID 81027)	1	-0.346	-0.993	-0.764	inactive
LINC00683 (GeneID 400660)	1	0.0208	-0.336	-0.765	inactive
NAA38 (GeneID 84316)	1	1.1	1.4	1.54	inactive
LOC440460 (retired record) (GeneID 440460)	1	-0.0304	-0.14	-0.214	inactive
RNF133 (GeneID 168433)	1	-0.577	-0.0551	0.86	inactive
CXCR1 (GeneID 3577)	1	-0.645	-1.07	-0.307	inactive
IGF1 (GeneID 3479)	1	2.43	1.7	2.43	active
CD74 (GeneID 972)	1	-0.66	-0.103	-0.42	inactive
TCEAL5 (GeneID 340543)	1	-1.48	-1.42	-0.891	inactive
TRIP13 (GeneID 9319)	1	1.76	0.437	1.71	inactive
AHCTF1 (GeneID 25909)	1	1.04	1.31	1.74	inactive
LOC441964 (retired record) (GeneID 441964)	1	-0.0775	0.618	0.48	inactive
IQCB1 (GeneID 9657)	1	1.87	0.386	-0.216	inactive
AKAP9 (GeneID 10142)	1	-0.0976	0.88	0.0533	inactive
VOPP1 (GeneID 81552)	1	-0.231	0.629	0.311	inactive
RMI2 (GeneID 116028)	1	-1.22	-0.783	-1.26	inactive
OSBPL3 (GeneID 26031)	1	0.694	1.28	0.383	inactive
FLJ14082 (retired record) (GeneID 80092)	1	-0.311	0.0632	0.0604	inactive
COL11A1 (GeneID 1301)	1	-0.134	-0.0806	-0.642	inactive
NT5DC1 (GeneID 221294)	1	2.05	1.49	1.86	inactive
RTF2 (GeneID 51507)	1	-1.95	-0.397	-2.44	active
GFM1 (GeneID 85476)	1	0.545	0.894	0.453	inactive
ZEB2 (GeneID 9839)	1	0.925	2.78	1.18	inactive
VSTM2B (GeneID 342865)	1	0.109	-0.0171	0.364	inactive
RAI14 (GeneID 26064)	1	2.45	2.47	4.7	active
LOC388297 (retired record) (GeneID 388297)	1	0.404	0.776	0.832	inactive
AIG1 (GeneID 51390)	1	0.677	0.663	0.79	inactive
ADAM22 (GeneID 53616)	1	-0.111	-0.764	-0.286	inactive
HMGB3P27 (GeneID 441795)	1	-0.439	-0.15	-0.438	inactive
ABCA4 (GeneID 24)	1	-0.811	-0.513	-0.955	inactive
LOC138972 (retired record) (GeneID 138972)	1	3.47	3.16	2.44	active
PRG3 (GeneID 10394)	1	-0.896	1.11	1.32	inactive
WFDC12 (GeneID 128488)	1	-2.09	-2.17	-2.3	active
ZNF610 (GeneID 162963)	1	-0.95	-0.926	-0.847	inactive
CDK10 (GeneID 8558)	1	1.3	0.754	1.81	inactive
TRPV1 (GeneID 7442)	1	0.494	0.143	0.914	inactive
EFHC2 (GeneID 80258)	1	0.422	0.00336	-0.267	inactive
TSC22D4 (GeneID 81628)	1	-1.31	-0.956	-0.739	inactive
C10orf67 (GeneID 256815)	1	0.203	0.146	0.374	inactive
C10orf67 (GeneID 256815)	2	-0.121	-0.282	-0.0369	inactive
LOC339902 (GeneID 339902)	1	0.928	0.35	0.63	inactive
ZNF747 (GeneID 65988)	1	0.175	0.644	0.0604	inactive
AGO1 (GeneID 26523)	1	2.54	2.17	2.58	active
ZNF503 (GeneID 84858)	1	-1.1	-1.2	-1.26	inactive
ELMOD3 (GeneID 84173)	1	3.53	3.36	3.49	active
ILRUN (GeneID 64771)	1	-0.91	-0.419	-0.928	inactive
NOX5 (GeneID 79400)	1	0.336	1.16	0.993	inactive
ZNF34 (GeneID 80778)	1	0.0486	0.241	-0.0688	inactive
TBC1D15 (GeneID 64786)	1	-0.605	0.216	0.0171	inactive
PIP4P2 (GeneID 55529)	1	0.451	0.648	-0.618	inactive
LOC440720 (retired record) (GeneID 440720)	1	1.55	2.45	2.11	active
COX11 (GeneID 1353)	1	0.0209	-0.204	0.552	inactive
NOX1 (GeneID 27035)	1	0.517	0.797	1.46	inactive
SPATS2L (GeneID 26010)	1	0.735	1.21	2.24	inactive
ALDOB (GeneID 229)	1	-0.78	-0.905	-1.07	inactive
TRMT9B (GeneID 57604)	1	-0.136	0.839	1.66	inactive
TRMT9B (GeneID 57604)	2	1.01	0.575	0.768	inactive
DKFZP586K1520 (retired record) (GeneID 26106)	1	0.128	1.2	-0.47	inactive
ALDH18A1 (GeneID 5832)	1	-0.0537	-0.209	-0.156	inactive
SRP19 (GeneID 6728)	1	-0.249	-0.117	0.316	inactive
PREX1 (GeneID 57580)	1	-1.73	-2.26	-0.0987	inactive
DYNC2I1 (GeneID 55112)	1	-1.06	0.316	-0.656	inactive
DPM1 (GeneID 8813)	1	0.568	0.302	0.519	inactive
MFRP (GeneID 83552)	1	-0.271	-0.308	0.77	inactive
SLC35E4 (GeneID 339665)	1	-0.92	-0.99	-1.25	inactive
APOC1 (GeneID 341)	1	1.2	1.4	0.897	inactive
COMMD5 (GeneID 28991)	1	0.569	0.337	0.203	inactive
NFYA (GeneID 4800)	1	1.21	0.669	1.34	inactive
SUPT20HL2 (GeneID 170067)	1	0.508	0.401	0.761	inactive
SUPT20HL2 (GeneID 170067)	2	-0.59	-0.273	-0.399	inactive
PARP14 (GeneID 54625)	1	-0.036	-0.274	-0.417	inactive
